# The full ranking holds about 33,000 sequences; the median of “E-score (-0.5 to 0.5)” is about -0.015, and the highest 2% start at about 0.3. The list shows a part of the results.
# Target: T1, Abf1 (UniProt P14164)
# T1 sequence: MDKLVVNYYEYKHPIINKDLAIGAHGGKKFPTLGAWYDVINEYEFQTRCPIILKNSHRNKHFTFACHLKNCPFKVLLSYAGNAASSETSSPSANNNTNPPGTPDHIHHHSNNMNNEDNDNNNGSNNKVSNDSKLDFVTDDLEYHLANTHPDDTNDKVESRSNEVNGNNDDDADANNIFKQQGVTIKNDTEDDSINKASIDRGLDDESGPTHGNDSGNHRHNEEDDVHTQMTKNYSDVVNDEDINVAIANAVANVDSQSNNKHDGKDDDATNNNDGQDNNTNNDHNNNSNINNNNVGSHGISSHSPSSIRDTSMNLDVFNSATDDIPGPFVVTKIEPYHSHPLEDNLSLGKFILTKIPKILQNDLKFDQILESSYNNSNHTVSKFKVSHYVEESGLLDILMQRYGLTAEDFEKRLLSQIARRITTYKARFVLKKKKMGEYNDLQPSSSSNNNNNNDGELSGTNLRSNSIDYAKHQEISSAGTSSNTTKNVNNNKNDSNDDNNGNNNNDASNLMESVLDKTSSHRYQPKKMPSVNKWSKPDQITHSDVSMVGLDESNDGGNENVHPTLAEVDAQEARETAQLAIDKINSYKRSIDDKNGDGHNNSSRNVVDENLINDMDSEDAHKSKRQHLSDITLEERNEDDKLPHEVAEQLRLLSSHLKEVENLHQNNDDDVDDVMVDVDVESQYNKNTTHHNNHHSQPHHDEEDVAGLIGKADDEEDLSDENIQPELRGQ
# Assay: PBM E-score (8-mer binding enrichment) (E-score (-0.5 to 0.5)); higher = stronger / more preferred TF binding
# Details: protein concentration: 200 nM; construct: GST-full length
# In short: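 Yeast transcription factors carrying a GST tag, as full-length proteins or DNA-binding domains, were produced by PURExpress in vitro transcription/translation. About 100-200 nM protein was applied to universal all-10-mer Agilent arrays, double-stranded by primer extension on fresh or once-stripped slides. Bound protein was detected with fluorescent anti-GST, and scans were normalised with masliner. The Universal PBM Analysis Suite gave each ungapped eight-base word, pooled with its reverse complement, an E-score, a modified Wilcoxon-Mann-Whitney statistic.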
row,Sequence,PBM E-score
1,ATCTGCAG,-0.106
2,GCATCGTA,0.0828
3,AGTTCGGG,0.0167
4,GCAGTCTA,-0.0989
5,CGCGACCG,0.103
6,GAGAGCGC,-0.184
7,AAGCTTTC,0.0211
8,CAAGCCGG,-0.0437
9,TCGACTCA,-0.0488
10,ACGCCTAT,-0.157
11,ATCCGTCA,0.23
12,AAGTTTCT,0.0716
13,ATTTCCTA,0.235
14,TCAGCAAA,0.0617
15,ACGGGCGG,-0.16
16,GCATCGCC,-0.0959
17,GACCGAAC,0.027
18,ATGAGACA,0.114
19,AGTGCGTG,0.0167
20,GAGTGGCC,-0.198
21,AATGGTTC,0.00999
22,ACACGTCG,0.132

row,Sequence,PBM E-score
1,GGCAAAGA,0.0763
2,CCTGCGTA,0.0181
3,AACTGTTA,0.0126
4,AACCGAGT,-0.0291
5,CAAAGCTG,-0.136
6,AAGGTTAT,-0.0209
7,GGCATACC,-0.0488
8,ATATGAGC,-0.0829
9,AGTAGTAC,0.176
10,CAATAAGC,-0.0209
11,CCCAATTC,0.152
12,AGTAAGGA,-0.117
13,CGTCGAGC,-0.0199
14,TAACCCAA,0.0926
15,TCATGGCA,0.0671
16,GGCAGGGA,-0.142
17,ACGCGACC,0.0451
18,CAATCGCG,-0.118
19,TATGCGCA,-0.0687
20,AAGGTAAG,-0.17
21,GTGACTTA,0.244
22,ACGCCTGA,0.0896

row,Sequence,PBM E-score
1,CATTTGGC,-0.0139
2,GACGGCAA,0.246
3,CGCAAGCC,0.0644
4,ACTTTCCT,-0.0527
5,ATGACTTC,0.183
6,CCTCATCA,0.227
7,TCGATTCA,0.0442
8,ATACGAAT,0.275
9,CCCACGCC,-0.116
10,ATCTCTCG,-0.0349
11,GTTACAGA,-0.136
12,CATTATAG,-0.0674
13,GCAGTTAC,-0.0187
14,ACCGTTAC,0.0659
15,GACGCCTC,-0.0456
16,GGGAATTA,0.0268
17,CACTCTAA,0.0194
18,CGTAGCTC,0.231
19,AAGAAGGC,-0.13
20,CATTTAAG,0.0948
21,GTAAAGAA,0.113
22,CGAATGAC,0.312

row,Sequence,PBM E-score
1,CACCCATG,0.026
2,CACTACTA,-0.0387
3,ATTCGCAA,-0.0147
4,AAAGGCAA,-0.0156
5,GTATCCCA,-0.0942
6,GGGGTCTA,-0.132
7,GACCTTGC,-0.137
8,GCATAGCA,-0.0915
9,AGGTGCAC,-0.186
10,AAGTTTAT,0.147
11,AAACTCCT,-0.13
12,AATATAGA,0.19
13,ACAGAAAA,0.0187
14,CCGCAAGA,0.0829
15,AGATCATA,0.192
16,CCGGTTTA,0.0654
17,AGGCCAGA,-0.0743
18,CATTTAAA,0.211
19,CCACCGGG,-0.141
20,GTCATAAC,0.105

# A different layout for some results above.
row	Sequence	PBM E-score
6	GGGGTCTA	-0.132
9	AGGTGCAC	-0.186
10	AAGTTTAT	0.147
12	AATATAGA	0.19
16	CCGGTTTA	0.0654
18	CATTTAAA	0.211

# Source: the supplement of paper PMC3334620
